Consider 1 molecule from publication PMC11998518.

Amino acid sequences for entries named in this document (tags omitted). Residues count along the entry.
UniProt A1Z0Q5, residues 26-394: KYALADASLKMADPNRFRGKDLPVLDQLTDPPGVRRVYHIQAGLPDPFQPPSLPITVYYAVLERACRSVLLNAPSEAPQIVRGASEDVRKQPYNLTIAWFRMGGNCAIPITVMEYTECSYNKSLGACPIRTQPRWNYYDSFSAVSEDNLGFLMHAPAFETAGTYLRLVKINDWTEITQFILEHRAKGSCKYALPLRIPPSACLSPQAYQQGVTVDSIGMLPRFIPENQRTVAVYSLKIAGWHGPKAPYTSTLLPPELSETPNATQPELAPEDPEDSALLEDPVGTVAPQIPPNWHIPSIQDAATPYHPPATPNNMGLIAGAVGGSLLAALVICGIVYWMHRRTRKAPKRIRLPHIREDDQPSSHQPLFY

These are yes or no findings as the source states them, for the method shown. For some assays here: Binding seen in cells or lysates may run through a third protein. Some binding calls cover weakened binding; strength is not graded here. Where a sequence is shown, tags or fusion partners need not be part of it.

Experiment [1] addresses HSV-1 glycoprotein D (gD) in the virion envelope of HSV-1 KOS (HSV-1 (strain KOS)) (UniProt A1Z0Q5). The experiment in a line: co-sedimentation; HSV-1 ΔgC or gCR virions pre-incubated with 20 µg anti-gD MAb MC14 or DL11 (1 h, 37°C), then 15 µg soluble nectin-1 for 2 h at 4°C; 60%-30%-10% sucrose gradient, virus band dot-blotted and probed with anti-6x-His antibody; only the binder purified.

The target is the same in experiment [2]. The experiment is described as follows: ELISA; virus ELISA (vELISA): VP5 equivalents of HSV-1 gCR or ΔgC virions bound to a MaxiSorp plate, fixed with 4% paraformaldehyde, blocked with 10% BSA; His-tagged soluble nectin-1 in 10-fold dilutions from 1 µM, 2 h at room temperature; detected with anti-6x-His-HRP; only the binder purified. (An ELISA detects its analyte on a solid surface through an enzyme-linked reagent.)

B1: soluble ectodomain form of nectin-1 (amino acids Gln 31-Thr 334) with a C-terminal 6x-His tag (receptor, UniProt Q15223 31-334)
chain: QVVQVNDSMYGFIGTDVVLHCSFANPLPSVKITQVTWQKSTNGSKQNVAIYNPSMGVSVLAPYRERVEFLRPSFTDGTIRLSRLELEDEGVYICEFATFPTGNRESQLNLTVMAKPTNWIEGTQAVLRAKKGQDDKVLVATCTSANGKPPSVVSWETRLKGEAEYQEIRNPNGTVTVISRYRLVPSREAHQQSLACIVNYHMDRFKESLTLNVQYEPEVTIEGFDGNWYLQRMDVKLTCKADANPPATEYHWTTLNGSLPKGVEAQNRTLFFKGPINYSLAGTYICEATNPIGTRSGQVEVNIT
On to B1, for which the binding result in experiment [1] and in experiment [2] was “binds” in each case.
